We go through 1 substance from patent US11464853B2 (Auckland UniServices Limited, priority 2016, dated 2022).

The nature of data set [1]: general procedure: Fmoc solid-phase peptide synthesis; HATU, 4-methylmorpholine. The note with it: whole synthesis, based on 0.1 mmol scale, scale 0.1 mmol.
The nature of data set [2]: general procedure: Fmoc solid-phase peptide synthesis; Aminomethyl polystyrene resin, Fmoc-Val-HMPP; HATU, 4-methylmorpholine. To be noted: whole synthesis, scale 0.1 mmol.

Where no end group is shown, it is not given here. The star is where a group is joined. tBu = CC(C)(C)*

Take Ac-CSKKKKNLVPC(tBu)VATV: the isolated yield in data set [1] is 43%. In data set [2], this substance gave an isolated mass of 74 mg.
